From article PMC12097031
Results are given in words; binding and its absence hold for the method and conditions named. In cells and extracts the contact can be indirect. Some binding calls cover weakened binding; strength is not graded here. Each block holds one molecule with its values, some of them ahead of it.

The chains behind the UniProt entries cited, without tags or fusion partners. Where a name states a change or a piece, a line headed by the entry shows the natural chain unless it says otherwise.
UniProt P31749: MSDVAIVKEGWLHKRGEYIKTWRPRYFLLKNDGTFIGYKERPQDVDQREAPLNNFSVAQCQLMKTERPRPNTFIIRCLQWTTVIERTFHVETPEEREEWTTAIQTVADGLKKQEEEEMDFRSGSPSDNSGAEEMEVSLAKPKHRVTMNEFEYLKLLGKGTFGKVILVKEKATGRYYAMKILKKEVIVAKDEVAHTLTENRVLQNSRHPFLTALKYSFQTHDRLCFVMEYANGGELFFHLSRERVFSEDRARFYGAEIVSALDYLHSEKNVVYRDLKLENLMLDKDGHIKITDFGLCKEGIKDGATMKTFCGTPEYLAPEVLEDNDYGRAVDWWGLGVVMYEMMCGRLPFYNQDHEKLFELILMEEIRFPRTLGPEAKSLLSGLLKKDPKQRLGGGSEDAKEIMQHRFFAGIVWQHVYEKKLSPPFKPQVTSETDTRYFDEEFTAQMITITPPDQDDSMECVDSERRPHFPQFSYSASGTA

Key:
[1] = target: T1, PPP2R2A, regulatory subunit (PP2A B) of the PP2A holoenzyme (human (endogenous in MCF-10A)) (UniProt P63151); assay: co-IP; MCF-10A AKT1^E17K cells, control and SVIL-AS1 knockdown; IP with PPP2R2A antibody and reciprocal IP with AKT1 antibody, followed by western blot
T1 sequence: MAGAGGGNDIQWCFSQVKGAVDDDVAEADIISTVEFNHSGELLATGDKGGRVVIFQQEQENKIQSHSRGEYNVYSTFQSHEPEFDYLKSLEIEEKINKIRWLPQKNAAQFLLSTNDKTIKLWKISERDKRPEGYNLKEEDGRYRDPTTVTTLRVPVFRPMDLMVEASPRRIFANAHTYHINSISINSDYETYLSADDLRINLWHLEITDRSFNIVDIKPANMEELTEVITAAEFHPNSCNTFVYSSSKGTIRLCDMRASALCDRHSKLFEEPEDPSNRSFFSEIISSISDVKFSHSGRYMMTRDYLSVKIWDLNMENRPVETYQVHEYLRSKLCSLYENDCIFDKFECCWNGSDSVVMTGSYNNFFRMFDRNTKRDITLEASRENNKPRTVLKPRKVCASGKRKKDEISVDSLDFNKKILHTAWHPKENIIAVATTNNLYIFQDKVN

[2] = target: AKT1 of MCF-10A AKT1^E17K knock-in cells (human (endogenous in MCF-10A AKT1^E17K)) (UniProt P31749); assay: as above

binding [1]: binds
Molecule: AKT1 of MCF-10A AKT1^E17K knock-in cells (from UniProt P31749 1-480) (enzyme)

binding [2]: binds
B1: PPP2R2A, regulatory subunit (PP2A B) of the PP2A holoenzyme (protein, UniProt P63151 1-447)
chain: T1 sequence
